Test results from PubChem BioAssay AID485318 (Broad Institute, 2010).
The whole screen tested about 1,400 compounds, of which fewer than 10 were called active.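 The calls were made as follows: active = fluorescence-lowering compounds whose fitted half-maximal concentration is at or below ten times the highest valid dose tested; inconclusive = flat curve at 30 to 70% inhibition, or poor fit; inactive = the rest.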 The list shows a part of the results.

The chains behind the UniProt entries cited, without tags or fusion partners. Where a name states a change or a piece, a line headed by the entry shows the natural chain unless it says otherwise.
UniProt O15379: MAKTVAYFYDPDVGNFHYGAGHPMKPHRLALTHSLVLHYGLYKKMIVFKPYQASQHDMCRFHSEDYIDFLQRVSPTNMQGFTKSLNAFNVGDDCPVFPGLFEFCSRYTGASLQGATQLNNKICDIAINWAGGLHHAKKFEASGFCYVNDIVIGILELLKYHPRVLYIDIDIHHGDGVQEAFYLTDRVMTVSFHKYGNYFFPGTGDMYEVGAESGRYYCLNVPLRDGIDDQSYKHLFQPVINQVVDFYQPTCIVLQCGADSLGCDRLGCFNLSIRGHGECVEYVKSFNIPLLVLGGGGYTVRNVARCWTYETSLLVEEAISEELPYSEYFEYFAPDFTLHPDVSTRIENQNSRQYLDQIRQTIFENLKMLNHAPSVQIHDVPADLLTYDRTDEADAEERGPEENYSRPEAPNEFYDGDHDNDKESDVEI

target: Histone deacetylase 3 (Homo sapiens) (UniProt O15379); test: inhibition of human HDAC3 enzymatic activity – biochemical, fluorescence, cherry-picked samples, counter-screen for JMJD2C/GASC1 demethylase inhibitor project, dose response (AID 485318); settings: recombinant HDAC3, fluorogenic peptide/trypsin coupled; at 12 µM (top of the series);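 also: enzyme preincubated with compound before substrate and trypsin were added; 0% = neutral control wells and -100% = SAHA positive control wells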

Row | SMILES | activity change, negative = inhibition
1 | COc1cc([N+](=O)[O-])ccc1NC(=O)CSc1nccn1C | inactive: 0.071%
2 | COc1ccc(/C=N/NS(=O)(=O)c2ccc(NC(C)=O)cc2)cc1 | inactive: 0.054%
3 | CCCc1nn(C)c(C(=O)Nc2ccc(C)c(C)c2)c1Cl | inactive: -0.267%
4 | Cc1cccc(NCc2ccc(O)c3ncccc23)c1 | inactive: 0.74%
5 | COc1ccc(S(=O)(=O)Nc2cccc3c2O[C@H](CN(C)Cc2ccc(C(=O)O)cc2)[C@@H](C)CN([C@H](C)CO)C3=O)cc1 | inactive: 0.333%
6 | CC(=O)c1cc2c(O)c(O)ccc2o1 | inactive: 0.648%
7 | Cc1c(NC(=O)C2Cc3ccccc3CN2C(=O)c2ccco2)c(=O)n(-c2ccccc2)n1C (configuration not stated) | inactive: 0.159%
8 | O=C(Nc1c(F)cc(F)cc1Br)c1ccco1 | inactive: 0.234%
9 | O=C(NCCNc1ccc([N+](=O)[O-])cc1C(F)(F)F)c1ccccc1 | inactive: 0.504%
10 | Cc1cc(SCC(=O)c2ccccc2)n2nc(C)nc2n1 | inactive: 0.67%
11 | Cc1ccc(-c2nnc(SC(C)C(=O)NCC3CCCO3)nc2-c2ccc(C)cc2)cc1 (configuration not stated) | inactive: 0.403%
12 | Cc1c(C(=O)N2CCC3(CC2)CC(=O)c2ccccc2O3)cccc1[N+](=O)[O-] | inactive: -0.102%
13 | O=C(NNC(=O)c1cccnc1Cl)c1ccc(F)cc1 | inactive: 0.569%
14 | CCOC(=O)c1ccc2c(c1)nc(COc1ccc3ccccc3c1)n2CC | inactive: 0.593%
15 | C[C@@H](NC(=O)Cn1cnc2c(OCc3ccccc3)ncnc21)c1cccc2ccccc12 | inactive: 0.883%
16 | C#CCNC(=O)C1=C[C@@H](c2ccc(C(F)(F)F)cc2)C[C@@H](OCCCCO)O1 | inactive: -0.00206%
17 | Cc1ccc(S(=O)(=O)N2CCOCC2)cc1NC(=O)COC(=O)c1cc(=O)[nH]c2ccccc12 | inactive: 0.217%
18 | CCCCN1CC[C@H]2C=CC[C@@H](C(=O)Nc3ccc(OC)cc3)[C@H]2C1=O | inactive: -0.459%
19 | C#CCOCCOCCOCCNc1nc(N2CCN(C(=O)CCCCCCCCCCNC(=O)[C@H]([C@@H](C)CC)n3cc(CCCCN=C(N)N)nn3)CC2)nc(N2CCN(C(=O)CCCCCCCCCCNC(=O)[C@H](CCCCN)n3cc(C)nn3)CC2)n1 | inactive: -0.429%
20 | COc1ccc(NC(=O)N(C)C[C@H]2Oc3ccc(NC(=O)CCN4CCOCC4)cc3C(=O)N([C@H](C)CO)C[C@@H]2C)cc1 | inactive: 0.441%
21 | CCn1nc(C(=O)NNC(=O)COc2ccc(OC)cc2)c2ccccc2c1=O | inactive: 0.103%
22 | COc1ccc(N2CCN(C(=O)CSc3nnc(-c4cccnc4)n3-c3ccccc3)CC2)cc1 | inactive: -0.062%

2 entries from above, comma-delimited.
Row,SMILES,"activity change, negative = inhibition"
17,Cc1ccc(S(=O)(=O)N2CCOCC2)cc1NC(=O)COC(=O)c1cc(=O)[nH]c2ccccc12,inactive: 0.217%
18,CCCCN1CC[C@H]2C=CC[C@@H](C(=O)Nc3ccc(OC)cc3)[C@H]2C1=O,inactive: -0.459%
